No constants are given. Whether binding was seen depends on the method and setting. Some entries that bind do so weakly or less than the wild type.
Biological target: glucocorticoid receptor (mouse (endogenous in BWTG3)) (UniProt P06537)
Assay: re-ChIP (sequential chromatin immunoprecipitation); BWTG3 cells treated with 10 µM DEX or vehicle for 2 hrs, cross-linked with 1% formaldehyde; first immunoprecipitation with anti-GR antibody, eluted with 10 mM dithiothreitol and 1% SDS, second immunoprecipitation with anti-C/EBPβ antibody or control IgG; read out by qPCR of the mouse Cbg promoter (regions P5 to P1)

Sequences of proteins named here, by UniProt entry; tags and fusion partners are left off.
UniProt P06537: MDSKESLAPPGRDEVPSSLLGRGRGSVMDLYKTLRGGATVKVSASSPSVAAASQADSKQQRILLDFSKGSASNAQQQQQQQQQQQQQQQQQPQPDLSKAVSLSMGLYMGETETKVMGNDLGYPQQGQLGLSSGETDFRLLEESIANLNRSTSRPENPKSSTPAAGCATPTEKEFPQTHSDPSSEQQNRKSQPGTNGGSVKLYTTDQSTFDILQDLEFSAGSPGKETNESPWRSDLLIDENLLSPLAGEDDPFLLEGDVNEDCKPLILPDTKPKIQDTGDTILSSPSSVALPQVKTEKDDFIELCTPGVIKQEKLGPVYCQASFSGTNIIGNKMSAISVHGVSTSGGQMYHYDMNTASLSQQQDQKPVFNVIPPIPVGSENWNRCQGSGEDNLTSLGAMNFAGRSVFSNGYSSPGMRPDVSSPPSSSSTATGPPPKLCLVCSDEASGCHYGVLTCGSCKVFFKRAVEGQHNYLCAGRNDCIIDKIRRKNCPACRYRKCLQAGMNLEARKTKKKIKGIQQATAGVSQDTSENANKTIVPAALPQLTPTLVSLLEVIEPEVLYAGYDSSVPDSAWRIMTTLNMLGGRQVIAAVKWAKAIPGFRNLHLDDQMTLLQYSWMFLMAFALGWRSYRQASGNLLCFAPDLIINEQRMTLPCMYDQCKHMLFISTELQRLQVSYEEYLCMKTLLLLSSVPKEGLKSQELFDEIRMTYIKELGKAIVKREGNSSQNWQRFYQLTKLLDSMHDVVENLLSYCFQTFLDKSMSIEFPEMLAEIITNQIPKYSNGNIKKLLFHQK
UniProt P28033: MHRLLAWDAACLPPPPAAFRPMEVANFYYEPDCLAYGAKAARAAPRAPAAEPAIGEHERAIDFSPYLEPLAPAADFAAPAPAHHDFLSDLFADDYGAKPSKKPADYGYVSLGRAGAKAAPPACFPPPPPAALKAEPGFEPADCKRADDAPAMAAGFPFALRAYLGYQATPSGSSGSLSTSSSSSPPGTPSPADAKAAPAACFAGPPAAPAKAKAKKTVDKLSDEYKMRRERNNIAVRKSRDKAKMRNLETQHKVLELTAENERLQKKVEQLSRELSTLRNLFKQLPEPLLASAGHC

**Q.** How did the binding turn out when “CAAT/enhancer binding protein beta (from UniProt P28033 1-296)” was run?
**A.** binds

Source: paper PMC4205011
